Data from paper doi:10.1101/2025.10.18.683247.
Results are given in words; binding and its absence hold for the method and conditions named. In cells and extracts the contact can be indirect. A yes stands for co-enrichment or nearness to the bait. Other partners may have been found. Sequences can lack the tags named with a protein.

Molecular target: T1, FLAG-AGO1^WT (Arabidopsis ARGONAUTE1, wild type, N-terminally FLAG-tagged) (Arabidopsis thaliana) (UniProt O04379)
T1 sequence: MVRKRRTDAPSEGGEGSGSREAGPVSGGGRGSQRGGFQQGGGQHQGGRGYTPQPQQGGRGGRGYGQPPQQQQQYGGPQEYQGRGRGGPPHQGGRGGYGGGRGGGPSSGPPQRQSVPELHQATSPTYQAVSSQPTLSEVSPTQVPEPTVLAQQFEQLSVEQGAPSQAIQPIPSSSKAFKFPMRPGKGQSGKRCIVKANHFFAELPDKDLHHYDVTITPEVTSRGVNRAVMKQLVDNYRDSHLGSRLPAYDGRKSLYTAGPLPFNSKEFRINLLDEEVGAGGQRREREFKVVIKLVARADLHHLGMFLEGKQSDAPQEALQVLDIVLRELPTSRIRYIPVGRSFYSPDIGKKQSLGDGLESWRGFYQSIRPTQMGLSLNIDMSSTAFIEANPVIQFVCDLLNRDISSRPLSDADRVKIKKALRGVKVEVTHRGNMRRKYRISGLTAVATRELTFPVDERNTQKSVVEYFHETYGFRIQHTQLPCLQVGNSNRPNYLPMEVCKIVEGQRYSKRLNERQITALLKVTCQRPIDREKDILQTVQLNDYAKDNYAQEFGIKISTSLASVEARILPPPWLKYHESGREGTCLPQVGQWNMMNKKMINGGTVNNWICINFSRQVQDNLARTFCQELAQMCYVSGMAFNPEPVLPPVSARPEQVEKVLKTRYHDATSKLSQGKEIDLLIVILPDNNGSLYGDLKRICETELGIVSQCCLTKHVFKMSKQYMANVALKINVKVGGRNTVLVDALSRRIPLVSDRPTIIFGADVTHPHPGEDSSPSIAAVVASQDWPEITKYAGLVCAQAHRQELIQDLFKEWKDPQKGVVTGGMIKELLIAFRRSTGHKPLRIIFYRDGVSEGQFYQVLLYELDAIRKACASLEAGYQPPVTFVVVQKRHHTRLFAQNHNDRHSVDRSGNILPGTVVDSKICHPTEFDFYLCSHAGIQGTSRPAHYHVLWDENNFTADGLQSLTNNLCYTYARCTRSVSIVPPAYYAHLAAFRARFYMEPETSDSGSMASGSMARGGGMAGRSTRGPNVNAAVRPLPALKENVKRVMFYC
Test: affinity purification with mass spectrometry

binding: binds
B1: SGS3 (SUPPRESSOR OF GENE … 3) (protein, UniProt Q9LDX1 1-625)
chain: MSSRAGPMSKEKNVQGGYRPEVEQLVQGLAGTRLASSQDDGGEWEVISKKNKNKPGNTSGKTWVSQNSNPPRAWGGQQQGRGSNVSGRGNNVSGRGNGNGRGIQANISGRGRALSRKYDNNFVAPPPVSRPPLEGGWNWQARGGSAQHTAVQEFPDVEDDVDNASEEENDSDALDDSDDDLASDDYDSDVSQKSHGSRKQNKWFKKFFGSLDSLSIEQINEPQRQWHCPACQNGPGAIDWYNLHPLLAHARTKGARRVKLHRELAEVLEKDLQMRGASVIPCGEIYGQWKGLGEDEKDYEIVWPPMVIIMNTRLDKDDNDKWLGMGNQELLEYFDKYEALRARHSYGPQGHRGMSVLMFESSATGYLEAERLHRELAEMGLDRIAWGQKRSMFSGGVRQLYGFLATKQDLDIFNQHSQGKTRLKFELKSYQEMVVKELRQISEDNQQLNYFKNKLSKQNKHAKVLEESLEIMSEKLRRTAEDNRIVRQRTKMQHEQNREEMDAHDRFFMDSIKQIHERRDAKEENFEMLQQQERAKVVGQQQQNINPSSNDDCRKRAEEVSSFIEFQEKEMEEFVEEREMLIKDQEKKMEDMKKRHHEEIFDLEKEFDEALEQLMYKHGLHNEDD
